This is one part of the list. Repeats are few or missing, and single values can be far off.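 The apoptosis fraction was the count of cleaved-PARP antibody-stained nuclei relative to all DNA-stained nuclei, imaged in 1,536-well plates. Screening doses were set so most cells survived, and baseline and induced cleaved-PARP levels vary greatly across cell lines.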
Tests used:
Experiment in all cases: cleaved PARP positive nuclei fraction relative to DMSO control; melanoma cells; higher = more apoptosis
Details in all cases: library dose: low library concentration; 72 h
MZ2-MEL = tested on: MZ2-MEL
MeWo = tested on: MeWo
RPMI7951 = tested on: RPMI7951
RVH-421 = tested on: RVH-421
SkMel28 = tested on: SkMel28
SkMel2 = tested on: SkMel2
SkMel30 = tested on: SkMel30
SkMel5 = tested on: SkMel5
UACC257 = tested on: UACC257
UACC62 = tested on: UACC62
WM115 = tested on: WM115
WM1716 = tested on: WM1716
WM1745 = tested on: WM1745
WM3526 = tested on: WM3526
WM3619 = tested on: WM3619
WM451Lu = tested on: WM451Lu

Compound	cleaved PARP positive nuclei fraction (MZ2-MEL)	cleaved PARP positive nuclei fraction (MeWo)	cleaved PARP positive nuclei fraction (RPMI7951)	cleaved PARP positive nuclei fraction (RVH-421)	cleaved PARP positive nuclei fraction (SkMel28)	cleaved PARP positive nuclei fraction (SkMel2)	cleaved PARP positive nuclei fraction (SkMel30)	cleaved PARP positive nuclei fraction (SkMel5)	cleaved PARP positive nuclei fraction (UACC257)	cleaved PARP positive nuclei fraction (UACC62)	cleaved PARP positive nuclei fraction (WM115)	cleaved PARP positive nuclei fraction (WM1716)	cleaved PARP positive nuclei fraction (WM1745)	cleaved PARP positive nuclei fraction (WM3526)	cleaved PARP positive nuclei fraction (WM3619)	cleaved PARP positive nuclei fraction (WM451Lu)
Cc1cn(-c2cc(NC(=O)c3ccc(C)c(Nc4nccc(-c5cccnc5)n4)c3)cc(C(F)(F)F)c2)cn1 [nilotinib] + COc1cc(N2CCC(N3CCN(C)CC3)CC2)ccc1Nc1ncc(Cl)c(Nc2ccccc2S(=O)(=O)C(C)C)n1 [NVP-TAE684] (first compound 0.2 µM, partner dose 0.08 µM)	63.2%	274%	74.4%	128%	165%	189%	55.5%	86.4%	225%	154%	150%	99.2%	121%	91.3%	159%	51.7%
Cc1ccc(Nc2nccc(N(C)c3ccc4c(C)n(C)nc4c3)n2)cc1S(N)(=O)=O [Pazopanib] + c1cc(-c2cnn3cc(-c4ccc(OCCN5CCCCC5)cc4)cnc23)ccn1 [Dorsomorphin] (first compound 0.4 µM, partner dose 0.4 µM)	130%	29.7%	40.5%	94.3%	61.6%	87.1%	85.7%	53%	257%	63.6%	72.7%	44.8%	102%	103%	118%	36.6%
COc1cc([C@@H]2c3cc4c(cc3[C@@H](O[C@@H]3O[C@@H]5CO[C@@H](C)O[C@H]5[C@H](O)[C@H]3O)[C@H]3COC(=O)[C@H]23)OCO4)cc(OC)c1O [etoposide] + Oc1cc(-c2nc(-c3ccccc3)[nH]c2-c2ccncc2)ccc1Cl [L779450] (first compound 0.02 µM, partner dose 0.2 µM)	147%	39.1%	53.8%	333%	121%	38.3%	31.7%	65.3%	117%	152%	275%	108%	99.3%	112%	95.9%	33.4%
O=C(/C=C/c1cccnc1)NCCCCC1CCN(C(=O)c2ccccc2)CC1 + CN(C)S(=O)(=O)c1ccc2c(c1)/C(=C/c1cc3c([nH]1)CCCC3)C(=O)N2 [SU6656] (first compound 0.01 µM, partner dose 0.4 µM)	603%	45.5%	92.9%	168%	47.7%	795%	61.2%	155%	38.6%	180%	92%	110%	92.6%	58.5%	101%	322%
O=C(Nc1cc(C(F)(F)F)cc(C(F)(F)F)c1)c1cc(Cl)ccc1O + N#Cc1c(O)c2c(-c3ccc(-c4ccccc4O)cc3)csc2[nH]c1=O [A769662] (first compound 0.016 µM, partner dose 2 µM)	74.9%	87.2%	30.9%	113%	139%	78%	81.9%	81.2%	175%	108%	37.7%	118%	80.9%	33.4%	63.3%	38.9%
Cc1cc(Nc2cc(N3CCN(C)CC3)nc(Sc3ccc(NC(=O)C4CC4)cc3)n2)n[nH]1 [Tozasertib] + NC(=O)Nc1cc(-c2cccc(F)c2)sc1C(=O)N[C@H]1CCCNC1 [AZD7762] (first compound 0.006 µM, partner dose 0.02 µM)	53.9%	142%	63.8%	38%	57.7%	207%	133%	130%	109%	59%	184%	315%	101%	83.8%	206%	208%
N#CC[C@H](C1CCCC1)n1cc(-c2ncnc3[nH]ccc23)cn1 [ruxolitinib] + Cn1cncc1[C@@](N)(c1ccc(Cl)cc1)c1ccc2c(c1)c(-c1cccc(Cl)c1)cc(=O)n2C [tipifarnib] (first compound 1 µM, partner dose 0.01 µM)	178%	121%	107%	122%	158%	129%	65.1%	196%	68.9%	123%	67.3%	102%	100%	60.3%	96.4%	298%
Cc1cn(-c2cc(NC(=O)c3ccc(C)c(Nc4nccc(-c5cccnc5)n4)c3)cc(C(F)(F)F)c2)cn1 [nilotinib] + CO[C@@H]1[C@H](N(C)C(=O)c2ccccc2)C[C@H]2O[C@]1(C)n1c3ccccc3c3c4c(c5c6ccccc6n2c5c31)C(=O)NC4 [Midostaurin] (first compound 0.2 µM, partner dose 0.08 µM)	36.9%	134%	72.4%	125%	75.8%	310%	89%	301%	73.9%	41.9%	92.5%	204%	132%	338%	106%	82.6%
O=c1[nH]nc(Sc2ncc([N+](=O)[O-])s2)n1-c1ccc2c(c1)OCCO2 + CC1(C)NC(=O)N(c2ccc([N+](=O)[O-])c(C(F)(F)F)c2)C1=O [nilutamide] (first compound 0.2 µM, partner dose 1 µM)	70.1%	50.8%	121%	40.5%	95.7%	85%	59.7%	135%	98.7%	128%	149%	168%	94.1%	46.6%	68.4%	92.9%
O=c1[nH]nc(Sc2ncc([N+](=O)[O-])s2)n1-c1ccc2c(c1)OCCO2 + Cc1cc(N2CCOCC2)cc2[nH]c(-c3c(NC[C@@H](O)c4cccc(Cl)c4)cc[nH]c3=O)nc12 [BMS536924] (first compound 0.2 µM, partner dose 0.2 µM)	46.8%	290%	54.9%	112%	58.3%	117%	152%	212%	49.5%	71.1%	104%	37.6%	118%	65.1%	93.6%	127%
Cc1ccc(Nc2nccc(N(C)c3ccc4c(C)n(C)nc4c3)n2)cc1S(N)(=O)=O [Pazopanib] + NCC(=O)Nc1ccc(-n2nc(C(F)(F)F)cc2-c2ccc3c(ccc4ccccc43)c2)cc1 [OSU03012] (first compound 0.4 µM, partner dose 1 µM)	90.8%	171%	52.3%	84.2%	59.4%	162%	138%	75.9%	127%	83%	208%	104%	73.5%	468%	202%	149%
COc1cc([C@@H]2c3cc4c(cc3[C@@H](O[C@@H]3O[C@@H]5CO[C@@H](C)O[C@H]5[C@H](O)[C@H]3O)[C@H]3COC(=O)[C@H]23)OCO4)cc(OC)c1O [etoposide] + CO[C@@H]1[C@H](N(C)C(=O)c2ccccc2)C[C@H]2O[C@]1(C)n1c3ccccc3c3c4c(c5c6ccccc6n2c5c31)C(=O)NC4 [Midostaurin] (first compound 0.02 µM, partner dose 0.08 µM)	49.3%	196%	108%	61.7%	165%	87.5%	50.6%	83.6%	79%	121%	79.2%	239%	94.8%	97.7%	104%	34.6%
Cc1ccc(Nc2nccc(N(C)c3ccc4c(C)n(C)nc4c3)n2)cc1S(N)(=O)=O [Pazopanib] + O=C1NC(=O)/C(=C/c2ccc(-c3ccc(F)cc3O)o2)S1 [AS252424] (first compound 0.4 µM, partner dose 1 µM)	82.5%	72.7%	142%	248%	114%	92.1%	78%	173%	202%	121%	147%	45.1%	85.9%	74.5%	104%	38.3%
Cc1ccc(Nc2nccc(N(C)c3ccc4c(C)n(C)nc4c3)n2)cc1S(N)(=O)=O [Pazopanib] + COc1cc2ncnc(Nc3ccc(Oc4ccccc4)cc3)c2cc1OC [SrcI1] (first compound 0.4 µM, partner dose 2 µM)	92.1%	29.2%	34%	112%	194%	152%	50.7%	76.7%	163%	134%	51.2%	48.1%	91.7%	85.3%	96.7%	104%
O=C(Nc1cc(C(F)(F)F)cc(C(F)(F)F)c1)c1cc(Cl)ccc1O + Cc1cc(N2CCOCC2)cc2[nH]c(-c3c(NC[C@@H](O)c4cccc(Cl)c4)cc[nH]c3=O)nc12 [BMS536924] (first compound 0.016 µM, partner dose 0.2 µM)	100%	38.6%	151%	39%	36.8%	74.4%	143%	79.9%	154%	45.1%	72.3%	89.2%	122%	72.9%	85.4%	103%
Cc1cc(Nc2cc(N3CCN(C)CC3)nc(Sc3ccc(NC(=O)C4CC4)cc3)n2)n[nH]1 [Tozasertib] + Cc1ccc(NC(=O)c2cccc(N(C)C)c2)cc1NC(=O)c1ccc(O)cc1 [ZM336372] (first compound 0.006 µM, partner dose 2 µM)	35%	62%	307%	198%	28.3%	52.4%	64.1%	167%	85.2%	131%	84.5%	142%	115%	337%	97.6%	46%
CCCCCCCCCCCCCCCCCCOP(=O)([O-])OC1CC[N+](C)(C)CC1 [Perifosine] + c1cc(-c2cnn3cc(-c4ccc(OCCN5CCCCC5)cc4)cnc23)ccn1 [Dorsomorphin] (first compound 0.4 µM, partner dose 0.4 µM)	63.2%	69.9%	89.3%	230%	67.9%	57%	45.3%	285%	21.7%	68.9%	121%	208%	222%	117%	1120%	62.7%

2 entries from above, set out differently.
Compound | cleaved PARP positive nuclei fraction (MZ2-MEL) | cleaved PARP positive nuclei fraction (MeWo) | cleaved PARP positive nuclei fraction (RPMI7951) | cleaved PARP positive nuclei fraction (RVH-421) | cleaved PARP positive nuclei fraction (SkMel28) | cleaved PARP positive nuclei fraction (SkMel2) | cleaved PARP positive nuclei fraction (SkMel30) | cleaved PARP positive nuclei fraction (SkMel5) | cleaved PARP positive nuclei fraction (UACC257) | cleaved PARP positive nuclei fraction (UACC62) | cleaved PARP positive nuclei fraction (WM115) | cleaved PARP positive nuclei fraction (WM1716) | cleaved PARP positive nuclei fraction (WM1745) | cleaved PARP positive nuclei fraction (WM3526) | cleaved PARP positive nuclei fraction (WM3619) | cleaved PARP positive nuclei fraction (WM451Lu)
COc1cc([C@@H]2c3cc4c(cc3[C@@H](O[C@@H]3O[C@@H]5CO[C@@H](C)O[C@H]5[C@H](O)[C@H]3O)[C@H]3COC(=O)[C@H]23)OCO4)cc(OC)c1O [etoposide] + CO[C@@H]1[C@H](N(C)C(=O)c2ccccc2)C[C@H]2O[C@]1(C)n1c3ccccc3c3c4c(c5c6ccccc6n2c5c31)C(=O)NC4 [Midostaurin] (first compound 0.02 µM, partner dose 0.08 µM) | 49.3% | 196% | 108% | 61.7% | 165% | 87.5% | 50.6% | 83.6% | 79% | 121% | 79.2% | 239% | 94.8% | 97.7% | 104% | 34.6%
Cc1ccc(Nc2nccc(N(C)c3ccc4c(C)n(C)nc4c3)n2)cc1S(N)(=O)=O [Pazopanib] + O=C1NC(=O)/C(=C/c2ccc(-c3ccc(F)cc3O)o2)S1 [AS252424] (first compound 0.4 µM, partner dose 1 µM) | 82.5% | 72.7% | 142% | 248% | 114% | 92.1% | 78% | 173% | 202% | 121% | 147% | 45.1% | 85.9% | 74.5% | 104% | 38.3%

From the supplement of paper PMC4604168 (melanoma cell lines)
